# Test results: the supplement of paper PMC11438910
# This is one part of the list. Most of these values are background signal.
# Assays:
# Assay in all cases: fluorescence intensity of antibody binding to polysaccharide-coupled beads; higher = stronger binding
# [1] = target: pneumococcal polysaccharide Pn10B
# [2] = target: pneumococcal polysaccharide Pn10C
# [3] = target: pneumococcal polysaccharide Pn10F
# [4] = target: pneumococcal polysaccharide Pn11A
# [5] = target: pneumococcal polysaccharide Pn11B
# [6] = target: pneumococcal polysaccharide Pn11C
# [7] = target: pneumococcal polysaccharide Pn11D
# [8] = target: pneumococcal polysaccharide Pn11F
# [9] = target: pneumococcal polysaccharide Pn12A
# [10] = target: pneumococcal polysaccharide Pn12B
# [11] = target: pneumococcal polysaccharide Pn12F
# [12] = target: pneumococcal polysaccharide Pn13
# [13] = target: pneumococcal polysaccharide Pn14
# [14] = target: pneumococcal polysaccharide Pn15A
# [15] = target: pneumococcal polysaccharide Pn15B
# [16] = target: pneumococcal polysaccharide Pn15C
# [17] = target: pneumococcal polysaccharide Pn15F
# [18] = target: pneumococcal polysaccharide Pn16A
# [19] = target: pneumococcal polysaccharide Pn16F
# [20] = target: pneumococcal polysaccharide Pn17A
# [21] = target: pneumococcal polysaccharide Pn17F
# [22] = target: pneumococcal polysaccharide Pn18A
# [23] = target: pneumococcal polysaccharide Pn18B
# [24] = target: pneumococcal polysaccharide Pn18C
# [25] = target: pneumococcal polysaccharide Pn18F
# [26] = target: pneumococcal polysaccharide Pn19A
# [27] = antibody concentration 2.8593 ng/mL
# [28] = antibody concentration 15.2894 ng/mL
# [29] = antibody concentration 81.7561 ng/mL
# [30] = antibody concentration 437.17 ng/mL
# [31] = antibody concentration 2337.65 ng/mL
# [32] = antibody concentration 0.1 ng/mL
# [33] = antibody concentration 0.534724 ng/mL
binder,measurement,setting,value
3S41.1 (protein) chain 1: EVQLVESGGGLVQPGGSLRLSCATSGFTFRNYWMYWFRQAPGKGLDWVSSISDSSSNTFYSDSVKGRFTISRDNAKNTLYLQMNSLRAEDTAVYYCARRPIAAATGVYWYFDLWGPGTPITVSS chain 2: EIVMTQSPATLSLSPGERATLSCRASQNIGSNLAWYQQKPGRAPKLLIYDASSRATGIPDRFSASGSGTDFTLTISSLEPEDVGVYYCQQYNNWKIFGPGTKLEIK,fluorescence intensity,[1]; [27],25.2 MFI
same,fluorescence intensity,[1]; [28],24 MFI
same,fluorescence intensity,[1]; [29],25.5 MFI
same,fluorescence intensity,[1]; [30],24.8 MFI
same,fluorescence intensity,[1]; [31],24.8 MFI
same,fluorescence intensity,[2]; [32],17 MFI
same,fluorescence intensity,[2]; [33],16.5 MFI
same,fluorescence intensity,[2]; [27],16 MFI
same,fluorescence intensity,[2]; [28],16 MFI
same,fluorescence intensity,[2]; [29],17 MFI
same,fluorescence intensity,[2]; [30],14.5 MFI
same,fluorescence intensity,[2]; [31],19 MFI
same,fluorescence intensity,[3]; [32],19 MFI
same,fluorescence intensity,[3]; [33],20.5 MFI
same,fluorescence intensity,[3]; [27],20.2 MFI
same,fluorescence intensity,[3]; [28],19.2 MFI
same,fluorescence intensity,[3]; [29],20 MFI
same,fluorescence intensity,[3]; [30],20 MFI
same,fluorescence intensity,[3]; [31],21.5 MFI
same,fluorescence intensity,[4]; [32],28.5 MFI
same,fluorescence intensity,[4]; [33],30.5 MFI
same,fluorescence intensity,[4]; [27],30.2 MFI
same,fluorescence intensity,[4]; [28],33 MFI
same,fluorescence intensity,[4]; [29],30 MFI
same,fluorescence intensity,[4]; [30],32 MFI
same,fluorescence intensity,[4]; [31],32 MFI
same,fluorescence intensity,[5]; [32],26.5 MFI
same,fluorescence intensity,[5]; [33],26.5 MFI
same,fluorescence intensity,[5]; [27],27.8 MFI
same,fluorescence intensity,[5]; [28],25.8 MFI
same,fluorescence intensity,[5]; [29],26.2 MFI
same,fluorescence intensity,[5]; [30],26.5 MFI
same,fluorescence intensity,[5]; [31],31.5 MFI
same,fluorescence intensity,[6]; [32],22 MFI
same,fluorescence intensity,[6]; [33],19.5 MFI
same,fluorescence intensity,[6]; [27],22 MFI
same,fluorescence intensity,[6]; [28],23 MFI
same,fluorescence intensity,[6]; [29],23 MFI
same,fluorescence intensity,[6]; [30],23.5 MFI
same,fluorescence intensity,[6]; [31],30 MFI
same,fluorescence intensity,[7]; [32],22 MFI
same,fluorescence intensity,[7]; [33],22.2 MFI
same,fluorescence intensity,[7]; [27],23 MFI
same,fluorescence intensity,[7]; [28],22.5 MFI
same,fluorescence intensity,[7]; [29],24 MFI
same,fluorescence intensity,[7]; [30],23.5 MFI
same,fluorescence intensity,[7]; [31],26 MFI
same,fluorescence intensity,[8]; [32],14.8 MFI
same,fluorescence intensity,[8]; [33],12.8 MFI
same,fluorescence intensity,[8]; [27],13.8 MFI
same,fluorescence intensity,[8]; [28],15.5 MFI
same,fluorescence intensity,[8]; [29],14 MFI
same,fluorescence intensity,[8]; [30],15 MFI
same,fluorescence intensity,[8]; [31],17 MFI
same,fluorescence intensity,[9]; [32],15 MFI
same,fluorescence intensity,[9]; [33],13.5 MFI
same,fluorescence intensity,[9]; [27],15.5 MFI
same,fluorescence intensity,[9]; [28],17.5 MFI
same,fluorescence intensity,[9]; [29],14.2 MFI
same,fluorescence intensity,[9]; [30],15.5 MFI
same,fluorescence intensity,[9]; [31],19 MFI
same,fluorescence intensity,[10]; [32],16.5 MFI
same,fluorescence intensity,[10]; [33],16 MFI
same,fluorescence intensity,[10]; [27],16 MFI
same,fluorescence intensity,[10]; [28],15.5 MFI
same,fluorescence intensity,[10]; [29],15.2 MFI
same,fluorescence intensity,[10]; [30],16.5 MFI
same,fluorescence intensity,[10]; [31],18 MFI
same,fluorescence intensity,[11]; [32],19 MFI
same,fluorescence intensity,[11]; [33],19 MFI
same,fluorescence intensity,[11]; [27],17 MFI
same,fluorescence intensity,[11]; [28],19 MFI
same,fluorescence intensity,[11]; [29],19.8 MFI
same,fluorescence intensity,[11]; [30],19.5 MFI
same,fluorescence intensity,[11]; [31],21.5 MFI
same,fluorescence intensity,[12]; [32],18.5 MFI
same,fluorescence intensity,[12]; [33],18.5 MFI
same,fluorescence intensity,[12]; [27],20.5 MFI
same,fluorescence intensity,[12]; [28],19.5 MFI
same,fluorescence intensity,[12]; [29],18.5 MFI
same,fluorescence intensity,[12]; [30],19 MFI
same,fluorescence intensity,[12]; [31],20 MFI
same,fluorescence intensity,[13]; [32],15.8 MFI
same,fluorescence intensity,[13]; [33],15 MFI
same,fluorescence intensity,[13]; [27],15 MFI
same,fluorescence intensity,[13]; [28],15 MFI
same,fluorescence intensity,[13]; [29],15.5 MFI
same,fluorescence intensity,[13]; [30],17 MFI
same,fluorescence intensity,[13]; [31],23.5 MFI
same,fluorescence intensity,[14]; [32],13.8 MFI
same,fluorescence intensity,[14]; [33],12.5 MFI
same,fluorescence intensity,[14]; [27],12 MFI
same,fluorescence intensity,[14]; [28],12.5 MFI
same,fluorescence intensity,[14]; [29],14 MFI
same,fluorescence intensity,[14]; [30],12.5 MFI
same,fluorescence intensity,[14]; [31],14 MFI
same,fluorescence intensity,[15]; [32],20 MFI
same,fluorescence intensity,[15]; [33],19.5 MFI
same,fluorescence intensity,[15]; [27],18.8 MFI
same,fluorescence intensity,[15]; [28],18.8 MFI
same,fluorescence intensity,[15]; [29],20.5 MFI
same,fluorescence intensity,[15]; [30],22 MFI
same,fluorescence intensity,[15]; [31],24.5 MFI
same,fluorescence intensity,[16]; [32],16.5 MFI
same,fluorescence intensity,[16]; [33],17.5 MFI
same,fluorescence intensity,[16]; [27],15 MFI
same,fluorescence intensity,[16]; [28],17.8 MFI
same,fluorescence intensity,[16]; [29],19.5 MFI
same,fluorescence intensity,[16]; [30],15.5 MFI
same,fluorescence intensity,[16]; [31],20 MFI
same,fluorescence intensity,[17]; [32],17.5 MFI
same,fluorescence intensity,[17]; [33],18 MFI
same,fluorescence intensity,[17]; [27],16.5 MFI
same,fluorescence intensity,[17]; [28],17 MFI
same,fluorescence intensity,[17]; [29],18 MFI
same,fluorescence intensity,[17]; [30],18.5 MFI
same,fluorescence intensity,[17]; [31],18.8 MFI
same,fluorescence intensity,[18]; [32],13.2 MFI
same,fluorescence intensity,[18]; [33],13.5 MFI
same,fluorescence intensity,[18]; [27],13 MFI
same,fluorescence intensity,[18]; [28],15 MFI
same,fluorescence intensity,[18]; [29],14.5 MFI
same,fluorescence intensity,[18]; [30],13 MFI
same,fluorescence intensity,[18]; [31],16.5 MFI
same,fluorescence intensity,[19]; [32],24.2 MFI
same,fluorescence intensity,[19]; [33],24.5 MFI
same,fluorescence intensity,[19]; [27],24.8 MFI
same,fluorescence intensity,[19]; [28],25.5 MFI
same,fluorescence intensity,[19]; [29],23.5 MFI
same,fluorescence intensity,[19]; [30],26 MFI
same,fluorescence intensity,[19]; [31],27.5 MFI
same,fluorescence intensity,[20]; [32],22 MFI
same,fluorescence intensity,[20]; [33],22 MFI
same,fluorescence intensity,[20]; [27],21 MFI
same,fluorescence intensity,[20]; [28],21 MFI
same,fluorescence intensity,[20]; [29],21.5 MFI
same,fluorescence intensity,[20]; [30],21 MFI
same,fluorescence intensity,[20]; [31],23 MFI
same,fluorescence intensity,[21]; [32],26 MFI
same,fluorescence intensity,[21]; [33],26 MFI
same,fluorescence intensity,[21]; [27],26 MFI
same,fluorescence intensity,[21]; [28],26.5 MFI
same,fluorescence intensity,[21]; [29],26.5 MFI
same,fluorescence intensity,[21]; [30],26.5 MFI
same,fluorescence intensity,[21]; [31],28 MFI
same,fluorescence intensity,[22]; [32],23.5 MFI
same,fluorescence intensity,[22]; [33],23 MFI
same,fluorescence intensity,[22]; [27],24 MFI
same,fluorescence intensity,[22]; [28],21.8 MFI
same,fluorescence intensity,[22]; [29],23.5 MFI
same,fluorescence intensity,[22]; [30],23.5 MFI
same,fluorescence intensity,[22]; [31],25 MFI
same,fluorescence intensity,[23]; [32],29.2 MFI
same,fluorescence intensity,[23]; [33],30.5 MFI
same,fluorescence intensity,[23]; [27],29.5 MFI
same,fluorescence intensity,[23]; [28],32 MFI
same,fluorescence intensity,[23]; [29],31 MFI
same,fluorescence intensity,[23]; [30],30.2 MFI
same,fluorescence intensity,[23]; [31],33 MFI
same,fluorescence intensity,[24]; [32],18.5 MFI
same,fluorescence intensity,[24]; [33],19.5 MFI
same,fluorescence intensity,[24]; [27],17.5 MFI
same,fluorescence intensity,[24]; [28],18.5 MFI
same,fluorescence intensity,[24]; [29],19.5 MFI
same,fluorescence intensity,[24]; [30],20 MFI
same,fluorescence intensity,[24]; [31],23 MFI
same,fluorescence intensity,[25]; [32],23.8 MFI
same,fluorescence intensity,[25]; [33],23.5 MFI
same,fluorescence intensity,[25]; [27],22.5 MFI
same,fluorescence intensity,[25]; [28],23 MFI
same,fluorescence intensity,[25]; [29],23.2 MFI
same,fluorescence intensity,[25]; [30],24.2 MFI
same,fluorescence intensity,[25]; [31],28 MFI
same,fluorescence intensity,[26]; [32],18 MFI
same,fluorescence intensity,[26]; [33],18 MFI
same,fluorescence intensity,[26]; [27],18 MFI
same,fluorescence intensity,[26]; [28],18.2 MFI
same,fluorescence intensity,[26]; [29],18 MFI
same,fluorescence intensity,[26]; [30],17 MFI
same,fluorescence intensity,[26]; [31],21 MFI

# Exported bar-delimited: entries from further up
binder | measurement | setting | value
3S41.1 (protein) chain 1: EVQLVESGGGLVQPGGSLRLSCATSGFTFRNYWMYWFRQAPGKGLDWVSSISDSSSNTFYSDSVKGRFTISRDNAKNTLYLQMNSLRAEDTAVYYCARRPIAAATGVYWYFDLWGPGTPITVSS chain 2: EIVMTQSPATLSLSPGERATLSCRASQNIGSNLAWYQQKPGRAPKLLIYDASSRATGIPDRFSASGSGTDFTLTISSLEPEDVGVYYCQQYNNWKIFGPGTKLEIK | fluorescence intensity | [21]; [30] | 26.5 MFI
same | fluorescence intensity | [21]; [31] | 28 MFI
same | fluorescence intensity | [22]; [32] | 23.5 MFI

# Given tab-delimited: part of the list above
binder	measurement	setting	value
3S41.1 (protein) chain 1: EVQLVESGGGLVQPGGSLRLSCATSGFTFRNYWMYWFRQAPGKGLDWVSSISDSSSNTFYSDSVKGRFTISRDNAKNTLYLQMNSLRAEDTAVYYCARRPIAAATGVYWYFDLWGPGTPITVSS chain 2: EIVMTQSPATLSLSPGERATLSCRASQNIGSNLAWYQQKPGRAPKLLIYDASSRATGIPDRFSASGSGTDFTLTISSLEPEDVGVYYCQQYNNWKIFGPGTKLEIK	fluorescence intensity	[14]; [30]	12.5 MFI
same	fluorescence intensity	[14]; [31]	14 MFI
